Assay [1] deals with human aurora B kinase (amino acids 65-344) (human) (UniProt Q96GD4). Kind of assay: co-purification of co-expressed proteins.
In assay [2] the target is T1, Pds5b-5A-Flag in HeLaK cells (human) (UniProt Q9NTI5).
T1 sequence: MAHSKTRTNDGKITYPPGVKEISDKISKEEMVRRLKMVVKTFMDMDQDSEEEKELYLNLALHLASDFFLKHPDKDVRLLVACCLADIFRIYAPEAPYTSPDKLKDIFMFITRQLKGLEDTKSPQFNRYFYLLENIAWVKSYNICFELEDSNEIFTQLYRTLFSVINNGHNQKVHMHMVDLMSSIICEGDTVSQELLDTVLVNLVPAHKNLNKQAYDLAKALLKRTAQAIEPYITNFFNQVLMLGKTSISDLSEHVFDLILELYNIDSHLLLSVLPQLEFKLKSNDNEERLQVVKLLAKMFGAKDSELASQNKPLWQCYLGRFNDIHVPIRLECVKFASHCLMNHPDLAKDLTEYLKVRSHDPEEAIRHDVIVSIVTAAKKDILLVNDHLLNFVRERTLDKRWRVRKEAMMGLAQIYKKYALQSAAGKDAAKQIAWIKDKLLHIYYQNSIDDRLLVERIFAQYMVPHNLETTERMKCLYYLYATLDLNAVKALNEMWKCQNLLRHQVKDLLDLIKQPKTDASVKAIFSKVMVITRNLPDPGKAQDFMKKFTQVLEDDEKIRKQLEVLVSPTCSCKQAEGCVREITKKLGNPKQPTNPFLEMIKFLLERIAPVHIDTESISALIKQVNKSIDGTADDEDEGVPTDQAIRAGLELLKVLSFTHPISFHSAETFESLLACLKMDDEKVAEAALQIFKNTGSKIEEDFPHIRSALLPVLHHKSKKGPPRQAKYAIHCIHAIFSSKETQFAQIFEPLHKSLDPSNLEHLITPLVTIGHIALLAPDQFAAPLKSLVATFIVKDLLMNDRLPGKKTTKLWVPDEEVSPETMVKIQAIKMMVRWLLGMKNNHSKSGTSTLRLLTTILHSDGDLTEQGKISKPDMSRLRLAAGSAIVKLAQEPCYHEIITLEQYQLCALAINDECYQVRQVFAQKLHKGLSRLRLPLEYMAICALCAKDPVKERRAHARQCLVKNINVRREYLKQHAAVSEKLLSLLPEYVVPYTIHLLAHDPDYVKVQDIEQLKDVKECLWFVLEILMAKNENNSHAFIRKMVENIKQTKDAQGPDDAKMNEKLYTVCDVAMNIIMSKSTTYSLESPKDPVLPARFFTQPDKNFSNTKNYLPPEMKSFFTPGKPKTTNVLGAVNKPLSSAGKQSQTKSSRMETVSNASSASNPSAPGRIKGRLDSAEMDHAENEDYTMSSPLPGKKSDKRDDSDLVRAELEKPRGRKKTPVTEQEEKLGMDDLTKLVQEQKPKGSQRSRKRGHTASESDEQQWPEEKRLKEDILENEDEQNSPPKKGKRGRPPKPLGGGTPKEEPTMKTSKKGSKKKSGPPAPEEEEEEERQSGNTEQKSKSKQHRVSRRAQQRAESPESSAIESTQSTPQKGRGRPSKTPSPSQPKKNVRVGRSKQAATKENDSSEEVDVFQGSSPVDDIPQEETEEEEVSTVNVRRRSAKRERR
Put plainly: co-IP.

By UniProt entry, the sequences of proteins in these tests, tags left out. Residues count along the entry.
UniProt Q96GD4, residues 65-344: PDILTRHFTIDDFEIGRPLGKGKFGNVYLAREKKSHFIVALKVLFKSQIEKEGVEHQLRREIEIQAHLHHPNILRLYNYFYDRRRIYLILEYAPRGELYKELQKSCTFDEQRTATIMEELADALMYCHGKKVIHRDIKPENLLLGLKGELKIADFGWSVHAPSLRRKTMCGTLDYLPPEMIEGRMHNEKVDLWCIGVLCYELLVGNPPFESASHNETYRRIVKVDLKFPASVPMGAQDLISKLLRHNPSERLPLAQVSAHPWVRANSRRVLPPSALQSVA
UniProt Q9NQS7, residues 819-918: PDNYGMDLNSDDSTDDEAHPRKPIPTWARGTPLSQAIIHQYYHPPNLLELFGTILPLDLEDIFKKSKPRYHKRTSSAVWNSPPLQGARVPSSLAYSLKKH
UniProt Q96FF9: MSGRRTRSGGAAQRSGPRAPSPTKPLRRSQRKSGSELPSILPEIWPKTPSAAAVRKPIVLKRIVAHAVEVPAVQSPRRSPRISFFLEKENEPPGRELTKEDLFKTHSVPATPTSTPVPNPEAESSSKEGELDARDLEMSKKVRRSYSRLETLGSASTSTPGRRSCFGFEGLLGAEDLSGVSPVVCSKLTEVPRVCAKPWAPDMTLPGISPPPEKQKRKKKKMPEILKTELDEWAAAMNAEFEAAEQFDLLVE

Assay [3] addresses T2, Pds5b-3A-Flag in HeLaK cells (human) (UniProt Q9NTI5).
T2 sequence: T1 sequence with A1161S, A1166S
Put plainly: co-IP.

Assay [4] deals with T3, Pds5b-2A-Flag in HeLaK cells (human) (UniProt Q9NTI5).
T3 sequence: T1 sequence with A1177S, A1182S, A1209S
Kind of assay: co-IP.

Where a chain is given by its changes, count along the chain named. These are yes or no findings as the source states them, for the method shown. For some of these results: In cells and extracts the contact can be indirect. Some entries that bind do so weakly or less than the wild type. For some of these results: Sequences can lack the tags named with a protein.

With “INCENP (amino acids 819-918) (from UniProt Q9NQS7 819-918) (domain or fragment)”, the binding entry in assay [1] is given as “binds”.
“endogenous sororin (from UniProt Q96FF9 1-252)”: the binding result in assay [2], in assay [3] and in assay [4] was “binds” each time.

The values above are taken from publication doi:10.1101/2024.03.12.584565.
